Measurements: patent publication US20050171057A1, “Pantoprazole cyclodextrin inclusion complexes” (ALTANA PHARMA AG, priority 2002, published 2005)
The name of at least one read-out is uncertain.

Assay: Complexation (phase solubility) study of pantoprazole with βCD and HPβCD in phosphate buffer pH 7
Format: physicochemical
Conditions: equilibrated with HPβCD (up to 20% p/v)
Protocol: Methods: Various solutions of the different cyclodextrins taken into consideration were prepared in phosphate buffer solution pH 7 at known concentrations and used to create saturated solutions of pantoprazole. After equilibration, these saturated solutions were filtered through MF™ membrane filters (pore size 0.45 μm), appropriately diluted with phosphate buffer solution and subjected to uv/vis spectrophotometric analysis. The cyclodextrin solutions prepared with phosphate buffer ranged from concentrations of 0% p/v up to 1.8% p/v for βCD, 20% p/v for HPβCD.

COc1ccnc(C[S+]([O-])c2nc3ccc(OC(F)F)cc3[nH]2)c1OC (stereo not shown) [pantoprazole, 5-difluoromethoxy-2-[(3,4-dimethoxy-2-pyridinyl)methylsulfinyl]-1H-benzimidazole]
increase of solubility with respect to solubility in phosphate buffer: over seventy
